# Laboratory results taken from patent US8216786B2, “Genetic polymorphisms associated with cardiovascular diseases, methods of detection and uses thereof” (Celera Corporation, priority 2008, dated 2012).
# This continues a long series; more values of the same kind are listed elsewhere.
# Test system: individuals who have previously had an MI
# Test: CARE trial: effect of pravastatin vs placebo on coronary events (endpt1, rmi) by SNP genotype subgroup
# Type: in vivo, human
# Details: endpt1
# Method: In Tables 21-22, the column labeled “Endpoint” indicates whether the endpoint that was analyzed was the primary endpoint of the CARE study (a composite endpoint of fatal coronary event or nonfatal MI, and identified as “endpt1”) or a composite endpoint of confirmed fatal or nonfatal MI (identified as “rmi”). […] As used herein, the term “benefit” (with respect to a preventive or therapeutic drug treatment) is defined as achieving a reduced risk for a disease that the drug is intended to treat or prevent (e.g., CVD such as CHD, particularly MI, or hypertension) by administering the drug treatment, compared with the risk for the disease in the absence of receiving the drug treatment (or receiving a placebo in lieu of the drug treatment) for the same genotype. […] J. […] (1996) New England Journal of Medicine 335: 1001-1009. […] A well-documented MI was one of the enrollment criteria for entry into the CARE study. Patients were enrolled in the CARE trial from 80 participating study centers. […] For the study of CARE described in this Example and shown in Tables 21-22, two endpoints were investigated: the primary endpoint of CARE (a composite endpoint of fatal coronary event or nonfatal MI, and identified as “endpt1” in the Endpoint column of Tables 21-22) and a composite endpoint of confirmed fatal or nonfatal MI (identified as “rmi” in the Endpoint column of Tables 21-22). […] HR stands for Hazard Ratio, which is a concept similar to Odds Ratio (OR). The HR in event-free survival analysis is the effect of an explanatory variable on the hazard or risk of an event. […] In Table 21, p-interaction values were calculated. An interaction (or effect modification) is formed when a third variable modifies the relation between an exposure and outcome. […] Genotype and drug interaction is present when the effect of statins (incidence rate of disease in statin-treated group, as compared to placebo) differs in patients with different genotypes.
# [1] = hCV8785827 rs992969 IL33, strata GG
# [2] = hCV8892418 rs901746 ACP2, strata AA
# [3] = hCV8892418 rs901746 ACP2, strata GA + GG
# [4] = hCV9581635 rs1748195 DOCK7, strata CC
# [5] = hCV9581635 rs1748195 DOCK7, strata CG + GG
# [6] = hCV9586862 rs995000 DOCK7, strata CC
# [7] = hCV9586862 rs995000 DOCK7, strata CT + TT
# [8] = hCV11170747 rs2066853 AHR, Strata AG + AA
# [9] = hCV11170747 rs2066853 AHR, Strata GG
# [10] = hCV11181829 rs5713 ACSM3, Strata CT + CC
# [11] = hCV11181829 rs5713 ACSM3, Strata TT
# [12] = hCV11225994 rs1853021 LPA, Strata AG + AA
# [13] = hCV11225994 rs1853021 LPA, Strata GG
# [14] = hCV11438723 rs1877273 WWOX, Strata TC + CC
# [15] = hCV11438723 rs1877273 WWOX, Strata TT
# [16] = hCV11461296 JAK3, Strata CG + CC
# [17] = hCV11466848 rs1805419 BAX, Strata AG + AA
# [18] = hCV11466848 rs1805419 BAX, Strata GG
# [19] = hCV11513719 rs2967605 ELAVL1, Strata CC
# [20] = hCV11513719 rs2967605 ELAVL1, Strata TC + TT
# [21] = hCV11568668 rs1317538 KCNQ5, strata AA
# [22] = hCV11568668 rs1317538 KCNQ5, strata AG
# [23] = hCV11568668 rs1317538 KCNQ5, strata GG
# [24] = hCV11628130 rs2665802 GH1, Strata TA + AA
# [25] = hCV11628130 rs2665802 GH1, Strata TT
# [26] = hCV11642651 rs1800440 C2orf58, Strata CC
# [27] = hCV11642651 rs1800440 C2orf58, Strata CT + TT
# [28] = hCV11678789 rs7219148, strata TG + GG
# [29] = hCV11678789 rs7219148, strata TT
# [30] = hCV11697322 rs1926447 CPB2, Strata AG + AA
# [31] = hCV11697322 rs1926447 CPB2, Strata GG
# [32] = hCV11764545 rs4961 ADD1, Strata TG + GG
# [33] = hCV11764545 rs4961 ADD1, Strata TT
# [34] = hCV11864162 rs1167998 DOCK7, strata AA
# [35] = hCV11864162 rs1167998 DOCK7, strata AC + CC
# [36] = hCV11955747 rs9901673 CD68, Strata AC + AA
# [37] = hCV11955747 rs9901673 CD68, Strata CC
# [38] = hCV11972326 rs5988 F13A1, Strata GC + CC
# [39] = hCV11972326 rs5988 F13A1, Strata GG
# [40] = hCV12020339 rs4531 DBH, Strata GG
# [41] = hCV12020339 rs4531 DBH, Strata TG + TT
# [42] = hCV12108469 CYP4A11, Strata AG + GG
# [43] = hCV15746640 rs41271951 CTSS, Strata AA
# [44] = hCV15746640 rs41271951 CTSS, Strata GA + GG
# [45] = hCV15758290 rs6716834 LRP2, Strata AA
# [46] = hCV15758290 rs6716834 LRP2, Strata GA + GG
# [47] = hCV15760070 rs2308911 HLA-DPA1, Strata TA + AA
# [48] = hCV15760070 rs2308911 HLA-DPA1, Strata TT
compound,measurement,setting,value
CC[C@H](C)C(=O)O[C@H]1C[C@H](O)C=C2C=C[C@H](C)[C@H](CC[C@@H](O)C[C@@H](O)CC(=O)O)[C@H]21 [pravastatin],EVENTS (Pravastatin arm),[1],75
same,NONEVENT (Pravastatin arm),[1],675
same,EVENTS (Pravastatin arm),[2],83
same,NONEVENT (Pravastatin arm),[2],632
same,EVENTS (Pravastatin arm),[3],53
same,NONEVENT (Pravastatin arm),[3],630
same,EVENTS (Pravastatin arm),[4],52
same,NONEVENT (Pravastatin arm),[4],575
same,EVENTS (Pravastatin arm),[5],84
same,NONEVENT (Pravastatin arm),[5],687
same,EVENTS (Pravastatin arm),[6],52
same,NONEVENT (Pravastatin arm),[6],577
same,EVENTS (Pravastatin arm),[7],84
same,NONEVENT (Pravastatin arm),[7],688
same,EVENTS (Pravastatin arm),[8],20
same,NONEVENT (Pravastatin arm),[8],283
same,EVENTS (Pravastatin arm),[9],112
same,NONEVENT (Pravastatin arm),[9],1008
same,EVENTS (Pravastatin arm),[10],8
same,NONEVENT (Pravastatin arm),[10],23
same,EVENTS (Pravastatin arm),[11],124
same,NONEVENT (Pravastatin arm),[11],1259
same,EVENTS (Pravastatin arm),[12],37
same,NONEVENT (Pravastatin arm),[12],311
same,EVENTS (Pravastatin arm),[13],92
same,NONEVENT (Pravastatin arm),[13],973
same,EVENTS (Pravastatin arm),[14],133
same,NONEVENT (Pravastatin arm),[14],1270
same,EVENTS (Pravastatin arm),[15],0
same,NONEVENT (Pravastatin arm),[15],12
same,EVENTS (Pravastatin arm),[16],1
same,NONEVENT (Pravastatin arm),[16],49
same,EVENTS (Pravastatin arm),"hCV11461296 JAK3, Strata GG",125
same,NONEVENT (Pravastatin arm),"hCV11461296 JAK3, Strata GG",1204
same,EVENTS (Pravastatin arm),[17],53
same,NONEVENT (Pravastatin arm),[17],620
same,EVENTS (Pravastatin arm),[18],83
same,NONEVENT (Pravastatin arm),[18],645
same,EVENTS (Pravastatin arm),[19],95
same,NONEVENT (Pravastatin arm),[19],832
same,EVENTS (Pravastatin arm),[20],40
same,NONEVENT (Pravastatin arm),[20],425
same,EVENTS (Pravastatin arm),[21],43
same,NONEVENT (Pravastatin arm),[21],324
same,EVENTS (Pravastatin arm),[22],70
same,NONEVENT (Pravastatin arm),[22],607
same,EVENTS (Pravastatin arm),[23],23
same,NONEVENT (Pravastatin arm),[23],336
same,EVENTS (Pravastatin arm),[24],113
same,NONEVENT (Pravastatin arm),[24],1034
same,EVENTS (Pravastatin arm),[25],18
same,NONEVENT (Pravastatin arm),[25],254
same,EVENTS (Pravastatin arm),[26],3
same,NONEVENT (Pravastatin arm),[26],54
same,EVENTS (Pravastatin arm),[27],130
same,NONEVENT (Pravastatin arm),[27],1237
same,EVENTS (Pravastatin arm),[28],111
same,NONEVENT (Pravastatin arm),[28],918
same,EVENTS (Pravastatin arm),[29],25
same,NONEVENT (Pravastatin arm),[29],348
same,EVENTS (Pravastatin arm),"hCV11689916, Strata AA",35
same,NONEVENT (Pravastatin arm),"hCV11689916, Strata AA",369
same,EVENTS (Pravastatin arm),"hCV11689916, Strata AT + TT",97
same,NONEVENT (Pravastatin arm),"hCV11689916, Strata AT + TT",863
same,EVENTS (Pravastatin arm),[30],74
same,NONEVENT (Pravastatin arm),[30],632
same,EVENTS (Pravastatin arm),[31],59
same,NONEVENT (Pravastatin arm),[31],655
same,EVENTS (Pravastatin arm),[32],131
same,NONEVENT (Pravastatin arm),[32],1238
same,EVENTS (Pravastatin arm),[33],2
same,NONEVENT (Pravastatin arm),[33],52
same,EVENTS (Pravastatin arm),[34],52
same,NONEVENT (Pravastatin arm),[34],570
same,EVENTS (Pravastatin arm),[35],84
same,NONEVENT (Pravastatin arm),[35],692
same,EVENTS (Pravastatin arm),[36],30
same,NONEVENT (Pravastatin arm),[36],399
same,EVENTS (Pravastatin arm),[37],103
same,NONEVENT (Pravastatin arm),[37],891
same,EVENTS (Pravastatin arm),[38],120
same,NONEVENT (Pravastatin arm),[38],1217
same,EVENTS (Pravastatin arm),[39],13
same,NONEVENT (Pravastatin arm),[39],69
same,EVENTS (Pravastatin arm),[40],104
same,NONEVENT (Pravastatin arm),[40],1095
same,EVENTS (Pravastatin arm),[41],28
same,NONEVENT (Pravastatin arm),[41],192
same,EVENTS (Pravastatin arm),"hCV12108469 CYP4A11, Strata AA",2
same,NONEVENT (Pravastatin arm),"hCV12108469 CYP4A11, Strata AA",60
same,EVENTS (Pravastatin arm),[42],128
same,NONEVENT (Pravastatin arm),[42],1225
same,EVENTS (Pravastatin arm),[43],109
same,NONEVENT (Pravastatin arm),[43],1096
same,EVENTS (Pravastatin arm),[44],24
same,NONEVENT (Pravastatin arm),[44],194
same,EVENTS (Pravastatin arm),[45],58
same,NONEVENT (Pravastatin arm),[45],635
same,EVENTS (Pravastatin arm),[46],75
same,NONEVENT (Pravastatin arm),[46],648
same,EVENTS (Pravastatin arm),[47],126
same,NONEVENT (Pravastatin arm),[47],1258
same,EVENTS (Pravastatin arm),[48],7
same,NONEVENT (Pravastatin arm),[48],31
same,EVENTS (Pravastatin arm),"hCV15851335 rs17610395 CPT1A, Strata CC",111
